This test addresses T1, Flag-SIRT2 (Sirtuin 2) (UniProt Q8IXJ6).
T1 sequence: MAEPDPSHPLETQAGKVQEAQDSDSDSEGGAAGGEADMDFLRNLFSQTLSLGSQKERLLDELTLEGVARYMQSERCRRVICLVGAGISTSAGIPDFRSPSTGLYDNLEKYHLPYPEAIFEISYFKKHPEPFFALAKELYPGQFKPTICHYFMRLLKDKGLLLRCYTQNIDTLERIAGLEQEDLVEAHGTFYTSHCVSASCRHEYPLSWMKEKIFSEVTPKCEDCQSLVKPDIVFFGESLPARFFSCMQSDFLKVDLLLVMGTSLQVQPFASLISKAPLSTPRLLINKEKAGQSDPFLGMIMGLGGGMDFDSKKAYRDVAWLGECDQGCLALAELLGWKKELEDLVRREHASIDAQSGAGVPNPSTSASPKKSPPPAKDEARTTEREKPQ
The test can be described thus: affinity purification with mass spectrometry; whole-cell lysates of SY5Y cells transfected with Flag-SIRT2 or vector, IPed by Flag-conjugated beads, eluted with 3× Flag peptide, trypsin digest, MS (Q Exactive), search against human UniProt Swiss-Prot.

By UniProt entry, the sequences of proteins in these tests, tags left out. Residues count along the entry.
UniProt P56817, residues 46-501: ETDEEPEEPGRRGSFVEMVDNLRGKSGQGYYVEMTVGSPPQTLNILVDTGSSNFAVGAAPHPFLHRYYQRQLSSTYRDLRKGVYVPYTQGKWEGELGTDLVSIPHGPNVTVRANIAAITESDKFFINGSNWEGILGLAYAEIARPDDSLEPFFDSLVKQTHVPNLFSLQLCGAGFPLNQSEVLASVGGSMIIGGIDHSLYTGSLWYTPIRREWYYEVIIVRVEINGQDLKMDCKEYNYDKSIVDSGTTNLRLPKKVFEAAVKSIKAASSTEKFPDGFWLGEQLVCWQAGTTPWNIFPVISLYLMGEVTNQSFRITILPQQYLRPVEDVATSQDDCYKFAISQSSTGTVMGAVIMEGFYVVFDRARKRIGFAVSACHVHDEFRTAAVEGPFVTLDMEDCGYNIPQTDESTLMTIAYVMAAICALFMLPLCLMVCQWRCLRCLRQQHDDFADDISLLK

In article PMC7431833 one finds binding data, which are given here for one substance.

These are yes or no findings as the source states them, for the method shown. In cells and extracts the contact can be indirect. Here binding means that the protein was enriched with, or labelled near, the bait; the list need not be complete. A no says only that the protein was not detected with the bait. Sequences can lack the tags named with a protein.

On to “BACE1 (β‐secretase 1), endogenous (from UniProt P56817 46-501) (enzyme)”, for which the binding entry is on record as “no binding”.
